# Source: patent US11930815B1, “3,3′-(piperazine-1,4-diyl)bis(1-(naphthalen-2-yloxy)propan-2-ol) as insecticidal agent” (priority 2023, dated 2024)
# Legend:
# [1] = test system: 4th instars of larvae of Spodoptera littoralis; test: Insecticidal bioassay screening, castor leaf dip, 4th instar larvae; assay type: in vivo; conditions: 4th larvae of S. littoralis, 72 h; slope of the regression (LDP) line
# Procedure: (§1) Five concentrations (200, 100, 50, 25, 12.5 ppm) were designed for this synthetic compound and the reference fenoxycarb compound as the dynamic ingredients based on ppm via diluting the commercial formulation.
# (§2) In this experiment, castor leaves are immersed in each of the previously prepared concentrations of the components for 10 seconds and then left to dry for 60 minutes. Larvae of the second and fourth instars of each checked strain are prepared with treated leaves in gauze-covered glass containers for 72 hrs. An untreated control is made in which leaves are dipped in triton x-100 and distilled water only. Then the preserved leaves were removed & fresh, untreated leaves were provided for 72 hours. Three replicates (10 larvae each) were checked for each concentration. Daily inspection was carried out for all treatments and mortality percentages were recorded 3 days (72 hours) after treatment. The average mortality percentage was corrected employing Abbott's formula. The corrected mortality rate for each of the previously synthesized compounds is statistically calculated according to Finney (1970). Through this rate, the corresponding concentration test lines (LDP lines) are assessed. Fifty and ninety percent mortality are determined, and the regression values for the checked products were previously evaluated.
# [2] = test system: 2nd instars of larvae of Spodoptera littoralis; test: Insecticidal bioassay screening, castor leaf dip, 2nd instar larvae; assay type: in vivo; conditions: 2nd larvae of S. littoralis, 72 h; slope of the regression (LDP) line
# Procedure: as §1, §2
SMILES,slope ± SE [1],slope ± SE [2]
"OC(COc1ccc2ccccc2c1)CN1CCN(CC(O)COc2ccc3ccccc3c2)CC1 (stereo not shown) [Compound 9, 3,3′-(piperazine-1,4-diyl)bis(1-(naphthalen-2-yloxy)propan-2-ol)]",0.231 ± 0.0823,0.293 ± 0.0862
"CCOC(=O)NCCOc1ccc(Oc2ccccc2)cc1 [Fenoxycarb, reference compound]",0.251 ± 0.082,0.238 ± 0.082
